Sequences and labels used below:
B1: hSP100 (aa 279-298 plus C-terminal Y) (peptide)
peptide: LHNHGIQINSCSVRLVDIKKY
B2: hCaf1 p150 (aa 231-249) (peptide)
peptide: ILFKGKVPMVVLQDILAVR
B3: hLBR (aa 103-122 plus N-terminal Y) (peptide)
peptide: YQADIKEARREVEVKLTPLIL

Results on three molecules are retold here after doi:10.1101/2024.11.04.621823.

Results are given in words; binding and its absence hold for the method and conditions named. Binding can be weak; no strength is given.

The target of the assay is HP1α chromoshadow domain (CSD; aa 110-191). The experiment in a line: ITC. In general terms: Isothermal titration calorimetry measures the heat released or taken up as one component is titrated into another.
For B1, the binding entry was “binds”.

As for B2, the binding result is reported as “binds”.

B3: the binding entry is “binds”.
